This is one part of the list. Many values rest on one well or one pass, so single values are uncertain.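 Cells were imaged in 1,536-well plates, and nuclei stained with an antibody against cleaved PARP were counted against all DNA-stained nuclei to give the apoptosis fraction. Screening doses were chosen to leave most cells alive, and resting and induced cleaved-PARP levels differ strongly between cell lines.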
Each compound was assayed on CBRC013 (line from a melanoma biopsy) (assay: cleaved PARP positive nuclei fraction relative to DMSO control; melanoma cells; higher = more apoptosis). Conditions: library dose: low library concentration; 72 h.

| SMILES | cleaved PARP positive nuclei fraction |
| --- | --- |
| OCCn1cc(-c2cnc3nnn(Cc4ccc5ncccc5c4)c3n2)cn1 + CCN(CC)CCCCNc1ncc2cc(-c3cc(OC)cc(OC)c3)c(NC(=O)NC(C)(C)C)nc2n1 [PD173074] (first compound 1 µM, partner dose 0.1 µM) | 357% |
| Cc1nc(Nc2ncc(C(=O)Nc3c(C)cccc3Cl)s2)cc(N2CCN(CCO)CC2)n1 [dasatanib] + CN(C)S(=O)(=O)c1ccc2c(c1)/C(=C/c1cc3c([nH]1)CCCC3)C(=O)N2 [SU6656] (first compound 0.004 µM, partner dose 0.4 µM) | 111% |
| CC(=O)c1c(C)c2cnc(Nc3ccc(N4CCNCC4)cn3)nc2n(C2CCCC2)c1=O [palbociclib] + COc1cc(Nc2ncc(F)c(Nc3ccc4c(n3)NC(=O)C(C)(C)O4)n2)cc(OC)c1OC [Tamatinib] (first compound 0.04 µM, partner dose 0.4 µM) | 155% |
| CO[C@@H]1[C@H](N(C)C(=O)c2ccccc2)C[C@H]2O[C@]1(C)n1c3ccccc3c3c4c(c5c6ccccc6n2c5c31)C(=O)NC4 [Midostaurin] + CN(NC(=O)CC(=O)NN(C)C(=S)c1ccccc1)C(=S)c1ccccc1 [STA4783] (first compound 0.08 µM, partner dose 0.006 µM) | 135% |
| Cc1cc(N2CCOCC2)cc2[nH]c(-c3c(NC[C@@H](O)c4cccc(Cl)c4)cc[nH]c3=O)nc12 + CC(C)CCN1c2nc(Nc3cc(F)c(O)c(F)c3)ncc2N(C)C(=O)C1C [BID1870] (first compound 0.2 µM, partner dose 0.2 µM) | 1300% |
| Nc1cccc2c1CN(C1CCC(=O)NC1=O)C2=O (stereo not given) [lenalidomide] + COc1cc2c(Oc3ccc4[nH]c(C)cc4c3F)ncnc2cc1OCCCN1CCCC1 [cediranib] (first compound 1 µM, partner dose 0.4 µM) | 135% |
| CC(C)(C)c1cnc(CSc2cnc(NC(=O)C3CCNCC3)s2)o1 + O=S(=O)(c1ccccc1)N(CC(F)(F)F)c1ccc(C(O)(C(F)(F)F)C(F)(F)F)cc1 [T0901317] (first compound 0.01 µM, partner dose 1.4 µM) | 69% |
| OCc1c[nH]c2ccccc12 [Indole-3-carbinol] + NCC(=O)Nc1ccc(-n2nc(C(F)(F)F)cc2-c2ccc3c(ccc4ccccc43)c2)cc1 [OSU03012] (first compound 0.8 µM, partner dose 1 µM) | 144% |
| C[C@]1(c2nc3c(C(N)=O)cccc3[nH]2)CCCN1 [Veliparib] + O=c1cc(-c2cccc3c2Sc2ccccc2S3)oc(N2CCOCC2)c1 [KU55933] (first compound 1.4 µM, partner dose 1 µM) | 57.7% |
| CC(C)(C)c1cnc(CSc2cnc(NC(=O)C3CCNCC3)s2)o1 + COc1cc2ncnc(Nc3ccc(Oc4ccccc4)cc3)c2cc1OC [SrcI1] (first compound 0.01 µM, partner dose 2 µM) | 108% |
| C#Cc1cccc(Nc2ncnc3cc(OCCOC)c(OCCOC)cc23)c1 [erlotinib] + OCCn1cc(-c2cnc3nnn(Cc4ccc5ncccc5c4)c3n2)cn1 [PF04217903] (first compound 0.8 µM, partner dose 1 µM) | 125% |
| Cn1nnc2c(C(N)=O)ncn2c1=O [temozolomide] + Oc1nc(-c2ccc(C(F)(F)F)cc2)nc2c1CSCC2 [XAV939] (first compound 2 µM, partner dose 2 µM) | 94.5% |
| COCC[n+]1c2c(n(Cc3cnccn3)c1C)C(=O)c1ccccc1C2=O + CN(C)S(=O)(=O)c1ccc2c(c1)/C(=C/c1cc3c([nH]1)CCCC3)C(=O)N2 [SU6656] (first compound 0.0004 µM, partner dose 0.4 µM) | 89.3% |
| C=CCn1c(=O)c2cnc(Nc3ccc(N4CCN(C)CC4)cc3)nc2n1-c1cccc(C(C)(C)O)n1 + CN(NC(=O)CC(=O)NN(C)C(=S)c1ccccc1)C(=S)c1ccccc1 [STA4783] (first compound 0.02 µM, partner dose 0.006 µM) | 140% |
| Cc1ccc(NC(=O)c2cccc(N(C)C)c2)cc1NC(=O)c1ccc(O)cc1 + Oc1cc(-c2nc(-c3ccccc3)[nH]c2-c2ccncc2)ccc1Cl [L779450] (first compound 2 µM, partner dose 0.2 µM) | 128% |

2 entries drawn at random from the list so far:

| SMILES | cleaved PARP positive nuclei fraction |
| --- | --- |
| Cn1nnc2c(C(N)=O)ncn2c1=O [temozolomide] + Oc1nc(-c2ccc(C(F)(F)F)cc2)nc2c1CSCC2 [XAV939] (first compound 2 µM, partner dose 2 µM) | 94.5% |
| Cc1nc(Nc2ncc(C(=O)Nc3c(C)cccc3Cl)s2)cc(N2CCN(CCO)CC2)n1 [dasatanib] + CN(C)S(=O)(=O)c1ccc2c(c1)/C(=C/c1cc3c([nH]1)CCCC3)C(=O)N2 [SU6656] (first compound 0.004 µM, partner dose 0.4 µM) | 111% |

— the supplement of paper PMC4604168 (melanoma cell lines)
